# No constants are given. Whether binding was seen depends on the method and setting. For some assays here: Binding seen in cells or lysates may run through a third protein. Some results given as binding are weak or reduced against the parent protein; the word gives no strength.
# Sequences of proteins named here, by UniProt entry; tags and fusion partners are left off.
# UniProt Q8CHK4: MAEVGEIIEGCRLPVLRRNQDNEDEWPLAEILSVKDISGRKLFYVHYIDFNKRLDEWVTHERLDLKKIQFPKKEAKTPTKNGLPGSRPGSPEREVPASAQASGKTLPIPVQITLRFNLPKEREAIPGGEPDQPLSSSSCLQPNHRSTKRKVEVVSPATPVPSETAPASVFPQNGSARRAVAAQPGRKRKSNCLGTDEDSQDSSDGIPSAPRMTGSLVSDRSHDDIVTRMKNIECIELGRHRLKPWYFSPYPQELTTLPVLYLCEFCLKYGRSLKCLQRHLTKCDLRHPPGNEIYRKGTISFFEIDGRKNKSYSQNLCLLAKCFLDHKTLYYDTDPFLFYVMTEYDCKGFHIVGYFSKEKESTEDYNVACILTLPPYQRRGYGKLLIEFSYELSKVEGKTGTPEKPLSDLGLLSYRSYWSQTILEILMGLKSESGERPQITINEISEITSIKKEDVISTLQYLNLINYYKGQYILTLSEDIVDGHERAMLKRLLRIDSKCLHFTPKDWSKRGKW
# Key:
# [1] = target: T1, MRTF-A (myocardin-related transcription factor A), endogenous in macrophages (mouse (endogenous in RAW264 and BMDMs)) (UniProt Q8K4J6); assay: co-IP; whole cell lysates from RAW cells (RIPA buffer: 50 mM Tris pH 7.4, 150 mM NaCl, 1% Triton X-100) immunoprecipitated with anti-MRTF-A or IgG; Protein A/G-plus agarose; Western blot
# T1 sequence: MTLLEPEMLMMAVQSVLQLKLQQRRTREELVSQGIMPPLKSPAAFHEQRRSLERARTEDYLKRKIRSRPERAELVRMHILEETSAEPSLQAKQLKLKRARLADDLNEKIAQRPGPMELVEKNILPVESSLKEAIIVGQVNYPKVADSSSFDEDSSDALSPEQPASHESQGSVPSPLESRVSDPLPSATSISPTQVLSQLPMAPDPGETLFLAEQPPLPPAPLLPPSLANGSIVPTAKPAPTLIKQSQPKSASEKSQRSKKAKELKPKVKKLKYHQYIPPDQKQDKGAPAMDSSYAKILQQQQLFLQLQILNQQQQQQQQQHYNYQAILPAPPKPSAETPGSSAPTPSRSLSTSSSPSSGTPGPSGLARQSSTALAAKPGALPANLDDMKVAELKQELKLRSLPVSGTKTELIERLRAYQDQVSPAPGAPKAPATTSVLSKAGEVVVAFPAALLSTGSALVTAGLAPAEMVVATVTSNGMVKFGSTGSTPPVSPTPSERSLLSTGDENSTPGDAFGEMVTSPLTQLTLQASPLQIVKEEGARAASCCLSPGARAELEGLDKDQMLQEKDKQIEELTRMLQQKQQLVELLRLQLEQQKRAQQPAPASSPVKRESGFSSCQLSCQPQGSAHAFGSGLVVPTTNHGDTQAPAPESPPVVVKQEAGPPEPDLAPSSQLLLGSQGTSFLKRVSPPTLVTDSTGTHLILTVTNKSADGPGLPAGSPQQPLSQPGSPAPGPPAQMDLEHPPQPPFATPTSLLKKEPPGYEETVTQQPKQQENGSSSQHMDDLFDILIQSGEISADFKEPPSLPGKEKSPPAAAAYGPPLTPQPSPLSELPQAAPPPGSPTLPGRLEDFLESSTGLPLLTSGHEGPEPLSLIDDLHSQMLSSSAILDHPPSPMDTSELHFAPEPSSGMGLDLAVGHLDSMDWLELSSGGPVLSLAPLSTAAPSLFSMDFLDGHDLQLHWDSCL
# [2] = target: T1, MRTF-A (myocardin-related transcription factor A), endogenous in macrophages (mouse (endogenous in RAW264 and BMDMs)); assay: Re-ChIP; RAW264 cells or primary BMDMs exposed to hypoxia-reoxygenation; Re-ChIP with indicated antibodies; iNOS promoter (GAPDH promoter as control)
substance,measurement,setting,value
"TIP60, endogenous in macrophages (from UniProt Q8CHK4 1-513) (enzyme)",binding,[1],binds
same,binding,[2],binds

# — publication PMC7315810
